This experiment deals with sigma receptor (guinea pig brain crude membrane fraction). Briefly: Sigma receptor binding assay (3H-DTG). Conditions: inhibition of 3H-DTG binding to guinea pig brain crude membrane fraction, 25° C., 1 hour. As for the experimental part: Sigma Receptor Binding Assay
(1) Preparation of Receptor
The receptor was prepared by the following procedure according to the method of Weber et al. (Proc. Natl. Acad. Sci. 83, 8784-8788, 1986). Ten male guinea pigs (Crj, Hartley, from Charles River Japan, Inc.) (body weight: 234 g to 260 g) were decapitated, bled and died. The brain was immediately taken out, homogenized with 50 mM Tris-HCl (pH 7.4) in an amount ten times larger than the brain using a Teflon homogenizer and was centrifuged at a rate of 50000×g at 4° C. for 20 minutes. The washing procedure was repeated once more under the same conditions, and the resulting crude membrane fraction was subjected to the assay.
In an assay tube (Daiichi Tube, from DRL) were incubated 0.1 mL of a solution of the test compound, 0.3 mL of a 50 mM Tris-HCl buffer (pH 7.4), 0.1 mL of ^3H-DTG solution (3.2 nM) and 0.5 mL of the receptor (guinea pig brain crude membrane fraction, 5 mg tissue) at 25° C. for 1 hour. After incubation, the mixture was filtrated using a filter paper (GF/B, from Whatman) which had been treated with 0.3% ethyleneimine. The filter paper was transferred to a vial for radioactivity measurement, mixed with 5 mL of a liquid scintillator (Atomlight, from PACKARD), and the radioactivity on the filter was determined by a liquid scintillation counter (Model 1500, from PACKARD) for 2 minutes. […]

Where a name gives a salt, the structure may show the parent alone.

Molecule `COc1cc2c(cc1OC)C(=O)C(CC1CCN(Cc3ccccc3)CC1)C2` (stereo not shown) [Control, 1-benzyl-4-[(5,6-dimethoxy-1-indanon)-2-yl]methylpiperidine hydrochloride, reference compound] had an IC50 of 18.7 nM.
